According to doi:10.1101/2020.07.20.209130:
These are yes or no findings as the source states them, for the method shown. Binding seen in cells or lysates may run through a third protein. These calls come from enrichment with a bait or labelling near it, and not all partners need be listed. For part of these data: Tags and fused reporters may be left off the sequences shown. Blank lines part the entries; values can stand above or below the molecule they belong to.

Protein sequences, listed by entry. Tags and fused reporters are not part of them. Lines headed by an entry give the natural chain unless they say otherwise; changes in a name come on top.
UniProt Q9NVM9: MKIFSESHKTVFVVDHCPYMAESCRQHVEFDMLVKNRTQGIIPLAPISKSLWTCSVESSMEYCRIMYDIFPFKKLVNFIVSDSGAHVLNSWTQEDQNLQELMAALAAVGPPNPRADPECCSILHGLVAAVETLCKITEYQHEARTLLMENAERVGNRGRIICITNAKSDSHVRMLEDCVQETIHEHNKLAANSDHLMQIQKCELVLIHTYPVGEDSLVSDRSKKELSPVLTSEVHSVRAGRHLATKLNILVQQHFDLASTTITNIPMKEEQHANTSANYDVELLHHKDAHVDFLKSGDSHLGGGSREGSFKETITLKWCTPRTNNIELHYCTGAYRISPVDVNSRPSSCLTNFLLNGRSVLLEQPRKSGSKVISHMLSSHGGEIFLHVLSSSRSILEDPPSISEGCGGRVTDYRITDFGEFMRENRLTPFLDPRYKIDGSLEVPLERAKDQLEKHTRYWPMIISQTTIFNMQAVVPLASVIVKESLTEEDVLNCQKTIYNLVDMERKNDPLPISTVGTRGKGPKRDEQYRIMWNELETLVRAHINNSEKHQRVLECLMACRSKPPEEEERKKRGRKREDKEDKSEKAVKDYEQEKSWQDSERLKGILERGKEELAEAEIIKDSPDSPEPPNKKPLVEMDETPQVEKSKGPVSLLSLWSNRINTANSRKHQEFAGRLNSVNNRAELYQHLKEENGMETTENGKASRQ
UniProt Q9NVR2: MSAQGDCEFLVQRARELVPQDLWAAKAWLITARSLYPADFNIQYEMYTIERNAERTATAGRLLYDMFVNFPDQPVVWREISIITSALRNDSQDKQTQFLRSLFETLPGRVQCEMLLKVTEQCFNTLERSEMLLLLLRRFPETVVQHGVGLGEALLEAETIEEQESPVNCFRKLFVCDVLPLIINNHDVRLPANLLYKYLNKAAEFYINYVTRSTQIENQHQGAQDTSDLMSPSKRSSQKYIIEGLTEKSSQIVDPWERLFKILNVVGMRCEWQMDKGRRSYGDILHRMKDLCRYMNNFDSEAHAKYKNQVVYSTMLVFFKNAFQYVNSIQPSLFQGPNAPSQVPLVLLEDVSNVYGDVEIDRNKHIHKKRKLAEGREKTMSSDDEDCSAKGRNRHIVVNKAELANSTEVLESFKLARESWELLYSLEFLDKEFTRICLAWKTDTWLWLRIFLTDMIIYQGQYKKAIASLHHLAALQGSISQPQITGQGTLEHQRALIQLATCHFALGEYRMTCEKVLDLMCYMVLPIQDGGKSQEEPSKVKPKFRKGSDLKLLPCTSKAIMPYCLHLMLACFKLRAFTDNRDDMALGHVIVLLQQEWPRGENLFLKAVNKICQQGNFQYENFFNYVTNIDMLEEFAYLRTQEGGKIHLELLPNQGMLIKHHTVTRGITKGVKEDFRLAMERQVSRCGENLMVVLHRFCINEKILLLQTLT

Experiments:
[1] = target: FLAG-INTS13 Family 2 mutant p.S652L (HEK-293T stable line) (human) (UniProt Q9NVM9); assay: affinity purification with mass spectrometry + co-IP
[2] = target: T1, FLAG-dIntS13 wild type (Drosophila S2 stable line) (Drosophila) (UniProt Q9VEX5); assay: as above
T1 sequence: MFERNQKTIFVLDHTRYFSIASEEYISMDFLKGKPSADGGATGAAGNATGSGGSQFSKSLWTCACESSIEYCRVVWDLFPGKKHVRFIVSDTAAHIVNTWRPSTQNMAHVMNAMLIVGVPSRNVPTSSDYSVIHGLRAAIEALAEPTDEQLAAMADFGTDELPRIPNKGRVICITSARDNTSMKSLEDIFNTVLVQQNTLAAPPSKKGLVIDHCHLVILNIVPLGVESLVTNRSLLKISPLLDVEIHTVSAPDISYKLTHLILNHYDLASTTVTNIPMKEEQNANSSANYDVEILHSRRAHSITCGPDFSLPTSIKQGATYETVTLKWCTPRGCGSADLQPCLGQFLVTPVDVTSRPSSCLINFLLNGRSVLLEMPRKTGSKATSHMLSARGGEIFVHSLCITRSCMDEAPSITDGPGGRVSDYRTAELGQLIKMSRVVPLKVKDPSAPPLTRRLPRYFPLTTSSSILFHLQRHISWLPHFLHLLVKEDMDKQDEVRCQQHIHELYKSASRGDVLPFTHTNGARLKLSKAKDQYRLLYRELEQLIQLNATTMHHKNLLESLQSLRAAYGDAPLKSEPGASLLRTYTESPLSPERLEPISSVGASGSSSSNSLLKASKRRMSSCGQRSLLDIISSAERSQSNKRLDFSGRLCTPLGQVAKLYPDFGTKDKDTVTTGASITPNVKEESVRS

binding [1]: binds
Molecule: INTS10, endogenous in HEK-293T (from UniProt Q9NVR2 1-710)

binding [2]: binds
B1: dIntS14, endogenous in Drosophila S2 cells (protein, UniProt Q9VPY0 1-587)
chain: MPTLIALDASLSMLRPVPGRNEHTYQSLATKGIQHLLDNLTAAGKLEHVALLSYSTTAELKVDFTRDYDQVRQAVKKVEPVDKACLMSMLKAVVSIMSPWGNQNILQVVVFTDCGLGFGNTSITGFLEAYAEKESEPEFGFLKTLANYNLNFICLGLHGDYYFTRGLAVYQQLLDKVSLKGQLFMTKPAKSSDAVEGNPNPNPNPSHKSELGRTTVFELIERLCEASYKSSEVTLKCGSYFRMEASVLLWPPTAPYEQKSHIFGREPTIRHTDQKIEVCGFLSLSDIGSPATLSRHWVLPKVEREKSGSSRRSGNLSAAAKPPKLNLDTSNPNYELEKLEADIKEFYAKDSKDTEESGDDDVTIVLKPGPQTEQQKENLCVLLHGALKMENMAALVRVGDKWYGFIYAFTDSKKKSNLMLNILPPGTNVIPWLGDLESLGFPEDLAPGETASFPVRADRRSYSQSSVVWIRQASLQSDVQKVLRHAKKMPDKTQHFYKELNRIRRAALALGFVELLEALAMLLEKECAHLSLNGASNDCTLQLQHAATELRKTSNRDMKSMIVPLQKVGASDAGSTAATAPAPAYMY

binding [2]: binds
B2: dIntS10, endogenous in Drosophila S2 cells (protein, UniProt Q9VZM7 1-631)
chain: MPSQEENELYMVKEAQRLRKSDPCAAMAWIITAKTLYPNAFNLQYEAYLLERDAQNYEEAAKCFSAIATNFQNQHTELWQEINSLTNALRNENETTPEHEFYVKMYKHLTPEVQHNIFMHTINHSADNLERIYIYILMFNKFPKSAITQAPRLLEMLAEGMKTEPDLYQRILVEEVLPMIQNKPPELSPNLACRLYTSSLEFYLRQIMDESDTADAWKNIFKVLMICGQMMGWEPFLPFSKHVNQNVYWEKLVDILSGSPAGSSQVLFYATTLFIYSLHGYIRNCKLRIEDADVTHVLVEGFMEWSPEGDGSEVPSMEPPKFSLTTAISPELSKAFLHAAQCWQLLNTDQFQRDFSQLMLALPLAPWISRFLFDLAIYFGHRDEANKLMADMTTQSSLVQSLQILSLNLMQGSMTLQGFQCILKILSELPTTQGQLLENMSLKGHRHMVFLPLTRSALVQYCVGAIISRLSRKVFEPNVPDRLLGDILVLQQLNLLNDVLLTQQIFNLIKQRKSFNLRTLSTYIINIDLLEELSHIWNSQQEDNFELTSSPNSSGTPTATTVAGGSQSRRIGTRGADKGARDEFRAITRQQIARCNENVITLLANFINQEHLMLAQHIFGISQPVETIVIK
